Earlier results, collected in US20230218557A1, “A FATTY ACID BASED COMPOSITION FOR TREATMENT AND/OR PREVENTION OF ENVELOPED-VIRUS RELATED INFECTIONS” (priority 2020, published 2023).
Some entries share one result that the patent states for a list of compounds.

Test system: enveloped viruses including influenza, herpes and sendai viruses
Conditions: within minutes; cited from earlier work

SMILES | concentrations inactivating enveloped viruses [µg/mL]
CCCCCCCC/C=C\CCCCCCCC(=O)O [oleic acid, Oleic acid, reference compound] | 5 to 25
CCCCC/C=C\C/C=C\CCCCCCCC(=O)O [LA, Linoleic acid] | 5 to 25
